Assay results reported in patent US20200369626A1 (Washington University, priority 2019, published 2020).
The structures given here were assigned with low confidence; some may be wrong.

Protein sequences, listed by entry. Tags and fused reporters are not part of them.
UniProt O95136, whole entry: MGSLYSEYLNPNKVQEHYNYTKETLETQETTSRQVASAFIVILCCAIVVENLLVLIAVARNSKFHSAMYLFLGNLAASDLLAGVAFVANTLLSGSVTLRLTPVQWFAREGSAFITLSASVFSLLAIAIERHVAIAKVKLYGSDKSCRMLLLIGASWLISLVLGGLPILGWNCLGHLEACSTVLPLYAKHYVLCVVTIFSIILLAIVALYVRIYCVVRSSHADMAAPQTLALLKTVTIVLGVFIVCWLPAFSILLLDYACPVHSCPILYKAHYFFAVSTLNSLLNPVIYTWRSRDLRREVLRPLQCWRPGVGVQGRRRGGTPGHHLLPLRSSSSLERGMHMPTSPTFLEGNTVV

Molecular target: S1PR2 (Homo sapiens, UniProt O95136)
Experiment: competitive [^32P]S1P binding assay on cell membranes, S1PR2
Settings: read-out: IC50 S1PR2; Table 5

## COc1cc(OC)c(NC(=O)Cn2c(=O)n(CC(=O)Nc3cccc(O)c3)c(=O)c3ccccc32)cc1Cl
  IC50: 4.8 nM
